Binding data for two molecules are collected here from article PMC6689063.

The target of test [1] is AztD from Citrobacter koseri (CkAztD) (Citrobacter koseri strain 4225-83) (UniProt A8AF35). Briefly: crystal structure; native CkAztD, two monomers in the asymmetric unit; site 2 of chain A projects into the pore of chain B; crystals grown under paraffin oil, PEG 4000, MES pH 6.0; both purified.
For test [2] the target is unchanged. Briefly: SEC; size exclusion chromatography of the purified protein in solution (Supplementary Fig. 3); both purified.
In test [3] the target is AztD from Paracoccus denitrificans (WT PdAztD) (Paracoccus denitrificans PD1222) (UniProt A1B2F4). The description is as above.

These are yes or no findings as the source states them, for the method shown.

B1: AztD from Citrobacter koseri (CkAztD) (protein, UniProt A8AF35 30-421)
chain: DEDVTAWRLFIADHDKPVVNVIDALDGDKLATFNVKGPANLSRSESGATIFAIQGSAGVVSTIASGIAFHDHGDHADIDIDAPKLLPLELTGKKPGHFVERQGKIAQWFDGEDSAQILGESAVLKGQKNITKVNVVAPHHGVAVPYDNYAVVSIPNPDDASKRPVGARVVDLQGKKVGDDALCPGLHGSAGSGDTFALSCETGLLLITQKNAAPVIRHLPYAKTLPEGSTSTLIGGKGMQYFIGNYGPDRIILVDPTESDSFRLIQLPTRRVHFVVDPVRAKFAYVFTEDGKLNQIDVLKGEISQSVRVTDPYSMDGHWNDPRPRIAVADNKIYVTDPLKSKIIVLDATSFKKTSEISVEGQPFNIVAVGGSGKVHGEHHDHEAHHHDDHAH
Turning to B1, the binding result in test [1] and in test [2] was “no binding” throughout.

B2: AztD from Paracoccus denitrificans (WT PdAztD) (protein, UniProt A1B2F4 22-408)
chain: QDHDHDHEDVTLYRVFVGDHEKGQVTAFDLAEPDHRWTFPTTGQVKLYSVAGGAVVAAVQSDADTVQFIRSGISFHDHGDHRDIEVGDPAAIDASLTGPRPFHLVEHDGKVVLNYDQGGYAEILDGHALAEGKAEPGRFPQARAHHGFVAPLGGNWLSTVASDEKVEGDASVPRLGLQAFDAEGNPAGNLATCTGIHGEAFSGAYLAAGCKEGVLTVKAGANGSEYKLLPYPADLPQGVTTGTLLGSTGIQVFLGNYGPDGLVVIDPVDEPHYRYIKLPFRRVDFALDPAKPSTGYVLTEDGSLHRIDLLKAEIVASAKVTEPYSMDGHWNDPRPRIAMAGDEIVVTDPNAGLVRRIATEDLSERGTVPVEGKPYNIAVTGGSGVTH
Turning to B2, the binding entry in test [3] is given as “no binding”.
